Source: paper PMC12667501
These are yes or no findings as the source states them, for the method shown. In cells and extracts the contact can be indirect. Some results given as binding are weak or reduced against the parent protein; the word gives no strength. Sequences can lack the tags named with a protein.

Protein sequences, listed by entry. Tags and fused reporters are not part of them.
UniProt P63208: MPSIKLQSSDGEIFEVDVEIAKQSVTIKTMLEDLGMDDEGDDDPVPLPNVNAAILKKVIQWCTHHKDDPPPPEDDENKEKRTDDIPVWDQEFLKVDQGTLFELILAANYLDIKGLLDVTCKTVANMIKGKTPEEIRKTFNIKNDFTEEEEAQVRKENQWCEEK
UniProt P35222: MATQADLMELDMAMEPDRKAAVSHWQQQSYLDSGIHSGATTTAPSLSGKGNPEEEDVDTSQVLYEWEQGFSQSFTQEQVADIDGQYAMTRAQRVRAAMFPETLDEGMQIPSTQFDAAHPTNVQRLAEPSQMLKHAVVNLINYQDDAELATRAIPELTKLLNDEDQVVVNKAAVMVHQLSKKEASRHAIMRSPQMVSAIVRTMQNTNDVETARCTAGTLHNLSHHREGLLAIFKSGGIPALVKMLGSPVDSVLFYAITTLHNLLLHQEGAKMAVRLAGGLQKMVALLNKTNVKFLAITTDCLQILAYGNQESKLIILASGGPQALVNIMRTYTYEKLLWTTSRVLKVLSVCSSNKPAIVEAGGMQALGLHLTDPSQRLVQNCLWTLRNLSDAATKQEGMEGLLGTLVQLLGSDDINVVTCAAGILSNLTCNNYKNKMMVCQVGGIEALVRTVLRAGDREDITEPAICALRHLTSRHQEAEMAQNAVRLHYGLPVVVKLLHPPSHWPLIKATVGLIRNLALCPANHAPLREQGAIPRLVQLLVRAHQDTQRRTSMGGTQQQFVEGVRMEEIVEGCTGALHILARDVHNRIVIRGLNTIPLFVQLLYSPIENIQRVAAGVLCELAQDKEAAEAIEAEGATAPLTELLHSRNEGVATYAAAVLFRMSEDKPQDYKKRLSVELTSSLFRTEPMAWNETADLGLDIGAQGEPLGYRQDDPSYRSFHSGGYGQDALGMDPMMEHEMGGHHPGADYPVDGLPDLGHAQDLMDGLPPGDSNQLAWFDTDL

B1: Myc-tagged Ube2r2 (enzyme, UniProt Q6ZWZ2 1-238)
chain: MAQQQMTSSQKALMLELKSLQEEPVEGFRITLVDESDLYNWEVAIFGPPNTLYEGGYFKAHIKFPIDYPYSPPTFRFLTKMWHPNIYENGDVCISILHPPVDDPQSGELPSERWNPTQNVRTILLSVISLLNEPNTFSPANVDASVMFRKWRDSKGKDKEYAEIIRKQVSATKAEAEKDGVKVPTTLAEYCIKTKVPSNDNSSDLLYDDLYDDDIDDEDEEEEDADCYDDDDSGNEES

Tests used:
[1] = molecular target: T1, Flag-tagged Btrc full-length isoform (FL) (UniProt Q3ULA2); assay: co-IP; Flag-tagged Btrc isoforms transfected into HEK293T cells; lysates precipitated with anti-Flag antibody; Western blotting for endogenous Skp1, Cul1 or phospho-β-catenin; for phospho-β-catenin cells treated with MG132 (10 µM) for 12 h
T1 sequence: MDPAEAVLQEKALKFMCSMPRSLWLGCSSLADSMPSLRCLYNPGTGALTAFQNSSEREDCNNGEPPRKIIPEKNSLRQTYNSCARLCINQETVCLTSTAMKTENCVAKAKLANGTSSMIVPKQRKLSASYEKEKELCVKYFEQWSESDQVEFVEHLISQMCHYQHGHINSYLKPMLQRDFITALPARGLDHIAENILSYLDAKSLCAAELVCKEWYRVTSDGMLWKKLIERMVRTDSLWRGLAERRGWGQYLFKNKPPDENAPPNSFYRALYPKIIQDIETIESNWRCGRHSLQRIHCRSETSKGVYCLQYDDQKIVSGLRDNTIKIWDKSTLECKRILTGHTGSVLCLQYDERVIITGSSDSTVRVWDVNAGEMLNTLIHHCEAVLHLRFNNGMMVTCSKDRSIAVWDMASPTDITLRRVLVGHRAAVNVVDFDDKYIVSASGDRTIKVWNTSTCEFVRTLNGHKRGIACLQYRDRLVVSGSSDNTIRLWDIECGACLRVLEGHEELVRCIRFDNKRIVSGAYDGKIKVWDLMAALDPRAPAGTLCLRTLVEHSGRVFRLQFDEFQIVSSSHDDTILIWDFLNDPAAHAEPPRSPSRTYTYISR

[2] = molecular target: T1, Flag-tagged Btrc full-length isoform (FL); assay: co-IP; Myc-tagged Ube2r2 and Flag-tagged Btrc isoforms cotransfected into HEK293T cells for 48 h; lysates precipitated with anti-Flag antibody; Western blotting with anti-Myc and anti-Flag

Molecule	binding [1]	binding [2]
Skp1 (from UniProt P63208 1-163)	binds	–
phosphorylated β-catenin (from UniProt P35222 1-781)	binds	–
B1	–	binds
